Results: patent publication US12576124 (dated 2026)

Test: general procedure: solution-phase peptide synthesis; pentafluorophenyl ester (pentafluorophenol/DCC), DIPEA
Conditions: coupling step

Substance | step yield
(2S,4R)-4-(2-((6S,9R,11R)-6-((S)-sec-butyl)-9-isopropyl-2,3,3,8-tetramethyl-4,7,13-trioxo-12-oxa-2,5,8-triazatetradecan-11-yl)thiazole-4-carboxamido)-5-(3-((2S,5S)-23-(2,5-dioxo-2,5-dihydro-1H-pyrrol-1-yl)-2,5-dimethyl-4,7,20-trioxo-10,13,16-trioxa-3,6,19-triazatricosanamido)-4-hydroxyphenyl)-2-methylpentanoic acid | 65% yield
(2S,4R)-4-(2-((1R,3R)-1-acetoxy-3-((2S,3S)—N,3-dimethyl-2-(2-methyl-2-(pyrrolidin-1-yl)propanamido)pentanamido)-4-methylpentyl)thiazole-4-carboxamido)-5-(3-((2S,5S)-23-(2,5-dioxo-2,5-dihydro-1H-pyrrol-1-yl)-2,5-dimethyl-4,7,20-trioxo-10,13,16-trioxa-3,6,19-triazatricosanamido)-4-hydroxyphenyl)-2-methylpentanoic acid | 61% yield
